Taken from: PubChem BioAssay AID1259424 (University of Nebraska Medical Center, 2018)

Assay: 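Seek colon cancer survival genes behaving like KSR1, using a six-gene signature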 (primary screen)
Cells: human HCT116 colon cancer cells
Knock-down reagent: siRNA pool against human genes, 50 nM
Read-out: 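Six signature mRNAs by branched-DNA multiplex assay, scaled to two housekeeping genes and non-targeting median, log2; matched to mean KSR1 knockdown profile by Pearson correlation and euclidean distance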
Reading the numbers: mean correlation with KSR1 profile: higher = expression change more like KSR1 knockdown; mean distance from KSR1 profile: higher = expression change less like KSR1 knockdown
Here is one part, drawn at random, of about 14,000 deposited reagents. 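Higher correlation or smaller distance means closer resemblance to KSR1 loss; control wells, including KSR1 knockdowns, recur on many plates.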 Not all columns of the deposit are shown. Not given: the time to read-out.

Knock-down of ELP1 gave: mean correlation with KSR1 profile 0.395; mean distance from KSR1 profile 1.57.
After knock-down of COMMD2, the record shows mean correlation with KSR1 profile 0.213; mean distance from KSR1 profile 1.1.
After knock-down of TMEM187, the record shows mean correlation with KSR1 profile -0.229; mean distance from KSR1 profile 3.57.
Against MEIS1, the entry reads mean correlation with KSR1 profile 0.0456; mean distance from KSR1 profile 2.02.
After knock-down of NUTM2F, the screen gave mean correlation with KSR1 profile -0.467; mean distance from KSR1 profile 3.11.
Against ADAMTS5, the values are mean correlation with KSR1 profile 0.0983; mean distance from KSR1 profile 1.25.
Silencing of MS4A2 resulted in: mean correlation with KSR1 profile 0.691; mean distance from KSR1 profile 2.29.
For PDE4C the deposit lists mean correlation with KSR1 profile -0.492; mean distance from KSR1 profile 2.69.
For SCN1B the deposit lists mean correlation with KSR1 profile 0.635; mean distance from KSR1 profile 1.62.
VIRMA showed mean correlation with KSR1 profile 0.0426; mean distance from KSR1 profile 1.6.
For CXXC4, the values are mean correlation with KSR1 profile 0.703; mean distance from KSR1 profile 1.6.
Against KRT20 the deposit lists mean correlation with KSR1 profile -0.118; mean distance from KSR1 profile 1.92.
After knock-down of TUG1, the screen gave mean correlation with KSR1 profile -0.695; mean distance from KSR1 profile 6.08.
CYP39A1 gave mean correlation with KSR1 profile -0.768; mean distance from KSR1 profile 2.46.
ASH1L showed mean correlation with KSR1 profile -0.572; mean distance from KSR1 profile 3.16.
For TRUB2 the deposit lists mean correlation with KSR1 profile 0.757; mean distance from KSR1 profile 2.23.
Against BTK, the values are mean correlation with KSR1 profile 0.0545; mean distance from KSR1 profile 2.58.
Against SLCO1C1, the entry reads mean correlation with KSR1 profile -0.628; mean distance from KSR1 profile 7.38.
NUP210 showed mean correlation with KSR1 profile 0.0977; mean distance from KSR1 profile 2.88.

Sorted by “mean correlation with KSR1 profile” (ascending): 3 of the entries above
PDE4C — mean correlation with KSR1 profile = -0.492; mean distance from KSR1 profile = 2.69
SCN1B — mean correlation with KSR1 profile = 0.635; mean distance from KSR1 profile = 1.62
MS4A2 — mean correlation with KSR1 profile = 0.691; mean distance from KSR1 profile = 2.29
